# According to publication doi:10.1101/2022.11.07.515412:
# Results are given in words; binding and its absence hold for the method and conditions named. Some binding calls cover weakened binding; strength is not graded here.
# T1: full-length human vinculin (HV) (human), P18206
# T1 chain: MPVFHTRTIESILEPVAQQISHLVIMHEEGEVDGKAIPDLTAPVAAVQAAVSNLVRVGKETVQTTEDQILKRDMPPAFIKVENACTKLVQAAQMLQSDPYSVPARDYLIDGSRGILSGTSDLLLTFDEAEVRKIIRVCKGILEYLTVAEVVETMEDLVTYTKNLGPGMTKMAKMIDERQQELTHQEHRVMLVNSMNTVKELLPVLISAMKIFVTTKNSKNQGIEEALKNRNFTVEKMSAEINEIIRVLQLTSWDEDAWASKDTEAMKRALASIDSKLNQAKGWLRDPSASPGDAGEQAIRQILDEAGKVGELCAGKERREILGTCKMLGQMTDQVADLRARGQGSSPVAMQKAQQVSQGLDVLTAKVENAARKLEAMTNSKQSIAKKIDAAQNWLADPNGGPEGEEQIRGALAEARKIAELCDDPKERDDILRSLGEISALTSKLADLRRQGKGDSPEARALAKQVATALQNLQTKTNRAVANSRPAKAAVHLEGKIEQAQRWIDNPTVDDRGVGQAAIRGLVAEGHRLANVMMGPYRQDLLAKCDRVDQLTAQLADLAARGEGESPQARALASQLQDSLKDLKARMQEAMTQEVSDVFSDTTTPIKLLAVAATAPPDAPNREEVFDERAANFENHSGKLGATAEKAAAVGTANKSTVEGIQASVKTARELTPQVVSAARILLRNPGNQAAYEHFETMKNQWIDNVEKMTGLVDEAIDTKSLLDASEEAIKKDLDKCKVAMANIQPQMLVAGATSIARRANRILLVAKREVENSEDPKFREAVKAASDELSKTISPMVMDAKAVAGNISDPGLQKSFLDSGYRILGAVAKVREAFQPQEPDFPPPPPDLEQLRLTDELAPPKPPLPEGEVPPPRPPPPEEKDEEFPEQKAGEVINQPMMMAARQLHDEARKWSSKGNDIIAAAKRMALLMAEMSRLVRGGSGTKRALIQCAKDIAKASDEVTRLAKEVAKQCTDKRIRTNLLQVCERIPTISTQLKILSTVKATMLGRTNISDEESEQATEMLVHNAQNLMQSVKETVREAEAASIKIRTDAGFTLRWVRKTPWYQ
# B1: full-length human vinculin (HV), P18206-2 1-1066 (protein)
# chain: MPVFHTRTIESILEPVAQQISHLVIMHEEGEVDGKAIPDLTAPVAAVQAAVSNLVRVGKETVQTTEDQILKRDMPPAFIKVENACTKLVQAAQMLQSDPYSVPARDYLIDGSRGILSGTSDLLLTFDEAEVRKIIRVCKGILEYLTVAEVVETMEDLVTYTKNLGPGMTKMAKMIDERQQELTHQEHRVMLVNSMNTVKELLPVLISAMKIFVTTKNSKNQGIEEALKNRNFTVEKMSAEINEIIRVLQLTSWDEDAWASKDTEAMKRALASIDSKLNQAKGWLRDPSASPGDAGEQAIRQILDEAGKVGELCAGKERREILGTCKMLGQMTDQVADLRARGQGSSPVAMQKAQQVSQGLDVLTAKVENAARKLEAMTNSKQSIAKKIDAAQNWLADPNGGPEGEEQIRGALAEARKIAELCDDPKERDDILRSLGEISALTSKLADLRRQGKGDSPEARALAKQVATALQNLQTKTNRAVANSRPAKAAVHLEGKIEQAQRWIDNPTVDDRGVGQAAIRGLVAEGHRLANVMMGPYRQDLLAKCDRVDQLTAQLADLAARGEGESPQARALASQLQDSLKDLKARMQEAMTQEVSDVFSDTTTPIKLLAVAATAPPDAPNREEVFDERAANFENHSGKLGATAEKAAAVGTANKSTVEGIQASVKTARELTPQVVSAARILLRNPGNQAAYEHFETMKNQWIDNVEKMTGLVDEAIDTKSLLDASEEAIKKDLDKCKVAMANIQPQMLVAGATSIARRANRILLVAKREVENSEDPKFREAVKAASDELSKTISPMVMDAKAVAGNISDPGLQKSFLDSGYRILGAVAKVREAFQPQEPDFPPPPPDLEQLRLTDELAPPKPPLPEGEVPPPRPPPPEEKDEEFPEQKAGEVINQPMMMAARQLHDEARKWSSKGNDIIAAAKRMALLMAEMSRLVRGGSGTKRALIQCAKDIAKASDEVTRLAKEVAKQCTDKRIRTNLLQVCERIPTISTQLKILSTVKATMLGRTNISDEESEQATEMLVHNAQNLMQSVKETVREAEAASIKIRTDAGFTLRWVRKTPWYQ
# Columns and labels:
# [1] = molecular target: cysteine-clamped full-length vinculin (HV-CC) (human) (UniProt P18206); assay: native gel or EMSA
# [2] = molecular target: T1, full-length human vinculin (HV) …; assay: native gel or EMSA; settings: remark: other sources report otherwise
Molecule,binding [1],binding [2]
cysteine-clamped full-length vinculin (HV-CC) (from UniProt P18206-2 1-1066),no binding,–
B1,–,binds
